# In the supplement of paper PMC4604168 (melanoma cell lines):
# This is one part of the list. Repeats are few or missing, and single values can be far off.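 Cells were imaged in 1,536-well plates, and nuclei stained with an antibody against cleaved PARP were counted against all DNA-stained nuclei to give the apoptosis fraction. Screening doses were chosen to leave most cells alive, and resting and induced cleaved-PARP levels differ strongly between cell lines.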
# Key:
# Assay in all cases: cleaved PARP positive nuclei fraction relative to DMSO control; melanoma cells; higher = more apoptosis
# Conditions in all cases: library dose: low library concentration; 72 h
# [1] = system: MZ2-MEL
# [2] = system: MeWo
# [3] = system: RPMI7951
# [4] = system: RVH-421
# [5] = system: SkMel28
# [6] = system: SkMel2
# [7] = system: SkMel30
# [8] = system: SkMel5
# [9] = system: UACC257
# [10] = system: UACC62
# [11] = system: WM115
# [12] = system: WM1716
# [13] = system: WM1745
# [14] = system: WM3526
# [15] = system: WM3619
# [16] = system: WM451Lu
Compound,cleaved PARP positive nuclei fraction [1],cleaved PARP positive nuclei fraction [2],cleaved PARP positive nuclei fraction [3],cleaved PARP positive nuclei fraction [4],cleaved PARP positive nuclei fraction [5],cleaved PARP positive nuclei fraction [6],cleaved PARP positive nuclei fraction [7],cleaved PARP positive nuclei fraction [8],cleaved PARP positive nuclei fraction [9],cleaved PARP positive nuclei fraction [10],cleaved PARP positive nuclei fraction [11],cleaved PARP positive nuclei fraction [12],cleaved PARP positive nuclei fraction [13],cleaved PARP positive nuclei fraction [14],cleaved PARP positive nuclei fraction [15],cleaved PARP positive nuclei fraction [16]
"Cn1c(Nc2ccc(C(F)(F)F)cc2)nc2cc(Oc3ccnc(-c4ncc(C(F)(F)F)[nH]4)c3)ccc21 + O=C(Nc1cccc(Cl)c1)Nc1ncc(CCNc2ncnc3ccsc23)s1 [SNS314] (first compound 0.08 µM, partner dose 0.0008 µM)",137%,230%,111%,111%,173%,196%,155%,193%,1100%,565%,1540%,200%,130%,130%,124%,696%
"CC(=O)c1c(C)c2cnc(Nc3ccc(N4CCNCC4)cn3)nc2n(C2CCCC2)c1=O [palbociclib] + C=CCn1c(=O)c2cnc(Nc3ccc(N4CCN(C)CC4)cc3)nc2n1-c1cccc(C(C)(C)O)n1 [MK1775] (first compound 0.04 µM, partner dose 0.02 µM)",150%,60.2%,144%,123%,48.6%,81.1%,124%,103%,181%,131%,263%,87.9%,116%,417%,149%,151%
"CC(=O)c1c(C)c2cnc(Nc3ccc(N4CCNCC4)cn3)nc2n(C2CCCC2)c1=O [palbociclib] + Oc1nc(-c2ccc(C(F)(F)F)cc2)nc2c1CSCC2 [XAV939] (first compound 0.04 µM, partner dose 2 µM)",104%,58.6%,79.2%,202%,171%,63.5%,129%,125%,195%,484%,170%,251%,138%,127%,151%,391%
"CC(=O)c1c(C)c2cnc(Nc3ccc(N4CCNCC4)cn3)nc2n(C2CCCC2)c1=O [palbociclib] + OCCn1cc(-c2cnc3nnn(Cc4ccc5ncccc5c4)c3n2)cn1 [PF04217903] (first compound 0.04 µM, partner dose 1 µM)",81.7%,83.6%,176%,106%,259%,86.1%,81.8%,83.9%,68.8%,38.5%,260%,144%,124%,207%,118%,44.4%
"C[C@@H]1CCN(C(=O)CC#N)C[C@@H]1N(C)c1ncnc2[nH]ccc12 + CN(NC(=O)CC(=O)NN(C)C(=S)c1ccccc1)C(=S)c1ccccc1 [STA4783] (first compound 1 µM, partner dose 0.006 µM)",156%,36.8%,103%,32.4%,31%,55.9%,201%,499%,46.3%,59.4%,74.5%,66.3%,204%,119%,113%,51.7%
"Cn1cncc1[C@@](N)(c1ccc(Cl)cc1)c1ccc2c(c1)c(-c1cccc(Cl)c1)cc(=O)n2C [tipifarnib] + O=C(O)c1ccc(-c2c[nH]c3ncc(-c4ccccc4)cc23)cc1C1CCCC1 [GSK650394] (first compound 0.01 µM, partner dose 0.16 µM)",136%,175%,90.2%,129%,66.2%,160%,259%,28%,108%,228%,109%,130%,102%,41.3%,108%,32.9%
"OCc1c[nH]c2ccccc12 [Indole-3-carbinol] + O=C(CCCCCCC(=O)Nc1ccccc1)NO [vorinostat] (first compound 0.8 µM, partner dose 0.08 µM)",72.8%,37%,48.9%,174%,399%,48.9%,44.2%,381%,44.2%,107%,106%,150%,92.8%,37.4%,112%,58.1%
"Nc1cccc2c1CN(C1CCC(=O)NC1=O)C2=O (centres undefined) [lenalidomide] + C=CCn1c(=O)c2cnc(Nc3ccc(N4CCN(C)CC4)cc3)nc2n1-c1cccc(C(C)(C)O)n1 [MK1775] (first compound 1 µM, partner dose 0.02 µM)",153%,73.6%,61.5%,40.5%,132%,150%,42.5%,32.7%,35.9%,105%,120%,119%,138%,108%,87.8%,75.2%
"CC(C)(C)c1cnc(CSc2cnc(NC(=O)C3CCNCC3)s2)o1 + O=C(O)c1ccc(-c2c[nH]c3ncc(-c4ccccc4)cc23)cc1C1CCCC1 [GSK650394] (first compound 0.01 µM, partner dose 0.16 µM)",69.9%,76.3%,63.2%,74.3%,427%,121%,69.3%,62.9%,142%,81.8%,95.9%,111%,82.8%,30.3%,70.9%,46.6%
"CC(=O)c1c(C)c2cnc(Nc3ccc(N4CCNCC4)cn3)nc2n(C2CCCC2)c1=O [palbociclib] + NC(=O)Nc1cc(-c2cccc(F)c2)sc1C(=O)N[C@H]1CCCNC1 [AZD7762] (first compound 0.04 µM, partner dose 0.02 µM)",55.2%,203%,235%,99.3%,149%,38.9%,254%,227%,170%,154%,277%,418%,118%,124%,139%,113%
"Cc1ccc(NC(=O)c2cccc(N(C)C)c2)cc1NC(=O)c1ccc(O)cc1 + Cn1cncc1[C@@](N)(c1ccc(Cl)cc1)c1ccc2c(c1)c(-c1cccc(Cl)c1)cc(=O)n2C [tipifarnib] (first compound 2 µM, partner dose 0.01 µM)",70.3%,43%,110%,169%,104%,101%,79.6%,102%,133%,110%,183%,122%,106%,67.5%,106%,29.1%
"Cn1c(Nc2ccc(C(F)(F)F)cc2)nc2cc(Oc3ccnc(-c4ncc(C(F)(F)F)[nH]4)c3)ccc21 + C[C@@H]1CCN(C(=O)CC#N)C[C@@H]1N(C)c1ncnc2[nH]ccc12 [CP690550] (first compound 0.08 µM, partner dose 1 µM)",494%,183%,313%,45.1%,90.6%,140%,109%,118%,398%,140%,77.1%,133%,132%,193%,144%,105%
"C[C@@H]1CCN(C(=O)CC#N)C[C@@H]1N(C)c1ncnc2[nH]ccc12 + NCC(=O)Nc1ccc(-n2nc(C(F)(F)F)cc2-c2ccc3c(ccc4ccccc43)c2)cc1 [OSU03012] (first compound 1 µM, partner dose 1 µM)",47.3%,346%,45.9%,67.5%,134%,219%,142%,78.4%,187%,93.7%,76.4%,97.1%,98.2%,278%,97.4%,73.3%
"OCc1c[nH]c2ccccc12 [Indole-3-carbinol] + CO[C@@H]1[C@H](N(C)C(=O)c2ccccc2)C[C@H]2O[C@]1(C)n1c3ccccc3c3c4c(c5c6ccccc6n2c5c31)C(=O)NC4 [Midostaurin] (first compound 0.8 µM, partner dose 0.08 µM)",57.1%,66.1%,120%,331%,121%,129%,77.4%,230%,148%,61.8%,81.6%,201%,119%,181%,97.9%,177%
"Nc1cccc2c1CN(C1CCC(=O)NC1=O)C2=O (centres undefined) [lenalidomide] + Cc1ccc(NC(=O)c2cccc(N(C)C)c2)cc1NC(=O)c1ccc(O)cc1 [ZM336372] (first compound 1 µM, partner dose 2 µM)",92.9%,102%,199%,62.2%,365%,75.8%,81.9%,67%,121%,51.1%,115%,102%,83%,53.7%,93.9%,71.8%
"OCc1c[nH]c2ccccc12 [Indole-3-carbinol] + Cc1cc(N2CCOCC2)cc2[nH]c(-c3c(NC[C@@H](O)c4cccc(Cl)c4)cc[nH]c3=O)nc12 [BMS536924] (first compound 0.8 µM, partner dose 0.2 µM)",145%,66.8%,189%,131%,203%,145%,116%,54.9%,182%,94.4%,46.6%,34%,96.4%,150%,55.5%,164%
"C#Cc1cccc(Nc2ncnc3cc(OCCOC)c(OCCOC)cc23)c1 [erlotinib] + Cn1cncc1[C@@](N)(c1ccc(Cl)cc1)c1ccc2c(c1)c(-c1cccc(Cl)c1)cc(=O)n2C [tipifarnib] (first compound 0.8 µM, partner dose 0.01 µM)",76.8%,375%,55.2%,63.9%,76.9%,79.2%,162%,212%,102%,240%,81.8%,125%,110%,65.5%,125%,120%
"Clc1ccc(Nc2nnc(Cc3ccncc3)c3ccccc23)cc1 [vatalanib] + C[C@@H]1CCN(C(=O)CC#N)C[C@@H]1N(C)c1ncnc2[nH]ccc12 [CP690550] (first compound 2 µM, partner dose 1 µM)",176%,86.6%,58.5%,42%,28.4%,176%,133%,149%,242%,147%,89.9%,85.8%,103%,54.3%,114%,134%
"COc1cc(Nc2ncc(F)c(Nc3ccc4c(n3)NC(=O)C(C)(C)O4)n2)cc(OC)c1OC [Tamatinib] + O=C(O)c1ccc(-c2c[nH]c3ncc(-c4ccccc4)cc23)cc1C1CCCC1 [GSK650394] (first compound 0.4 µM, partner dose 0.16 µM)",167%,82.2%,99%,109%,83.3%,227%,67.2%,43.2%,132%,215%,85.3%,64.2%,112%,34.8%,88.7%,81.6%

# Single records, as listed above. Values in the order: cleaved PARP positive nuclei fraction [1] | cleaved PARP positive nuclei fraction [2] | cleaved PARP positive nuclei fraction [3] | cleaved PARP positive nuclei fraction [4] | cleaved PARP positive nuclei fraction [5] | cleaved PARP positive nuclei fraction [6] | cleaved PARP positive nuclei fraction [7] | cleaved PARP positive nuclei fraction [8] | cleaved PARP positive nuclei fraction [9] | cleaved PARP positive nuclei fraction [10] | cleaved PARP positive nuclei fraction [11] | cleaved PARP positive nuclei fraction [12] | cleaved PARP positive nuclei fraction [13] | cleaved PARP positive nuclei fraction [14] | cleaved PARP positive nuclei fraction [15] | cleaved PARP positive nuclei fraction [16]
# C#Cc1cccc(Nc2ncnc3cc(OCCOC)c(OCCOC)cc23)c1 [erlotinib] + Cn1cncc1[C@@](N)(c1ccc(Cl)cc1)c1ccc2c(c1)c(-c1cccc(Cl)c1)cc(=O)n2C [tipifarnib] (first compound 0.8 µM, partner dose 0.01 µM) as listed: 76.8% | 375% | 55.2% | 63.9% | 76.9% | 79.2% | 162% | 212% | 102% | 240% | 81.8% | 125% | 110% | 65.5% | 125% | 120%
# Clc1ccc(Nc2nnc(Cc3ccncc3)c3ccccc23)cc1 [vatalanib] + C[C@@H]1CCN(C(=O)CC#N)C[C@@H]1N(C)c1ncnc2[nH]ccc12 [CP690550] (first compound 2 µM, partner dose 1 µM) as listed: 176% | 86.6% | 58.5% | 42% | 28.4% | 176% | 133% | 149% | 242% | 147% | 89.9% | 85.8% | 103% | 54.3% | 114% | 134%
